These results are taken from article PMC10373986.

Sequences of proteins named here, by UniProt entry; tags and fusion partners are left off. Residues count along the entry.
UniProt Q02487, residues 136-901: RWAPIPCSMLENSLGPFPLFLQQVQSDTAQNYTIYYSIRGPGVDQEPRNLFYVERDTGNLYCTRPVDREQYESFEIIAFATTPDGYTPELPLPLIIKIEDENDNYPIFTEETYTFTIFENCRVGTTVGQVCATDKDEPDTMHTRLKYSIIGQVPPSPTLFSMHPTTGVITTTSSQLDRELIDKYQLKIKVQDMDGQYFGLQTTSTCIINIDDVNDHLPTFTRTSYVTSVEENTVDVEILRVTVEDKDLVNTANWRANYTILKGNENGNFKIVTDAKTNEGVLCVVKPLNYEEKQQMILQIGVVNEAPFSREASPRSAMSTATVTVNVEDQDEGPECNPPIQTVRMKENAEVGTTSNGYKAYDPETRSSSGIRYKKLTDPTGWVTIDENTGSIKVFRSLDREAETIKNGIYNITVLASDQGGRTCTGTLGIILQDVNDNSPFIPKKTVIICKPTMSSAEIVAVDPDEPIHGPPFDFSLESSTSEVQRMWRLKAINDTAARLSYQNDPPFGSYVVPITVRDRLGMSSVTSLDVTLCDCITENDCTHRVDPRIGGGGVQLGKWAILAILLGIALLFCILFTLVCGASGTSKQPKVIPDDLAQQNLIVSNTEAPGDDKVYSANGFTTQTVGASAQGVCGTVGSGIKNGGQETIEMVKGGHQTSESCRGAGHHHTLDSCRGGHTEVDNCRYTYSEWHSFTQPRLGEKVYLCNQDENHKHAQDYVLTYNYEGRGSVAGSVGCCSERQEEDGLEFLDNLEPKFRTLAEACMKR

In this test the target is desmocollin2 (human) (UniProt Q02487). Kind of test: co-IP; lysates of BC, Lenti-NC and Lenti-DSC2 cells; antibodies on magnetic protein G beads, overnight at 4° C; precipitated by DSC2, γ-catenin detected by western blot.

No constants are given. Whether binding was seen depends on the method and setting. Binding seen in cells or lysates may run through a third protein. Some results given as binding are weak or reduced against the parent protein; the word gives no strength.

B1: γ-catenin (protein, UniProt P14923 1-745)
chain: MEVMNLMEQPIKVTEWQQTYTYDSGIHSGANTCVPSVSSKGIMEEDEACGRQYTLKKTTTYTQGVPPSQGDLEYQMSTTARAKRVREAMCPGVSGEDSSLLLATQVEGQATNLQRLAEPSQLLKSAIVHLINYQDDAELATRALPELTKLLNDEDPVVVTKAAMIVNQLSKKEASRRALMGSPQLVAAVVRTMQNTSDLDTARCTTSILHNLSHHREGLLAIFKSGGIPALVRMLSSPVESVLFYAITTLHNLLLYQEGAKMAVRLADGLQKMVPLLNKNNPKFLAITTDCLQLLAYGNQESKLIILANGGPQALVQIMRNYSYEKLLWTTSRVLKVLSVCPSNKPAIVEAGGMQALGKHLTSNSPRLVQNCLWTLRNLSDVATKQEGLESVLKILVNQLSVDDVNVLTCATGTLSNLTCNNSKNKTLVTQNSGVEALIHAILRAGDKDDITEPAVCALRHLTSRHPEAEMAQNSVRLNYGIPAIVKLLNQPNQWPLVKATIGLIRNLALCPANHAPLQEAAVIPRLVQLLVKAHQDAQRHVAAGTQQPYTDGVRMEEIVEGCTGALHILARDPMNRMEIFRLNTIPLFVQLLYSSVENIQRVAAGVLCELAQDKEAADAIDAEGASAPLMELLHSRNEGTATYAAAVLFRISEDKNPDYRKRVSVELTNSLFKHDPAAWEAAQSMIPINEPYGDDMDATYRPMYSSDVPLDPLEMHMDMDGDYPIDTYSDGLRPPYPTADHMLA
Regarding B1, the binding result was “binds”.
